This is one part of the list. The main result of the screen is listed elsewhere. These columns were measured beside it and carry no call. Compounds called inactive in the main read-out are mostly missing here. The note in brackets gives the kind of curve behind each potency; many fits are weak.
Assay: qHTS Assay for Lipid Storage Modulators in Drosophila S3 Cells;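 as to cell number change: cells counted by Cell Tracker Red CMTPX staining in the red channel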
Conditions: BODIPY lipid droplet fluorescence, 18-24 h; for cell number change: measured here: cell count max response, cells fed with added oleic acid
Summary of the method: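 Drosophila S3 cells loaded with oleic acid (400 uM, as added) and compounds at several concentrations; lipid droplets imaged by 488-nm laser-scanning cytometry, 500–530 nm intensity and object ratio to cell channel. Percent activity normalized to 20 uM Triacsin C.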

[1] = measured here: cell number channel AC50, cells fed with added oleic acid
[2] = measured here: lipid fluorescence (Fed channel) AC50, cells fed with added oleic acid

Row | SMILES | cell number change [%] | AC50 [1] | AC50 [2]
1 | C=CCNc1nnc(SC2CC(=O)N(c3ccc(OC)cc3)C2=O)s1 (centres undefined) | -47 | 29.1 µM [falling, single point] | 29.1 µM [falling, single point]
2 | O=C(Oc1ccccc1)c1cccc(N2C(=O)CCC2=O)c1 | -9.19 | 0.231 µM [falling, partial curve] | 6.51 µM [falling, single point]
3 | CCCCCCCCCCOC(=O)Cn1c(COc2cccc(C)c2)[n+](C)c2ccccc21 | -36.5 | 9.2 µM [falling, partial curve] | 4.11 µM [falling, full curve]
4 | COc1cccc(NC(=O)C(Sc2nnnn2C)c2ccccc2)c1 (centres undefined) | 7.95 |  | 
5 | CCCCCNC(=O)CN(c1ccc2c(c1)OCO2)S(C)(=O)=O | -22.9 | 0.00517 µM [falling, full curve, poor fit] | 
6 | CC[C@@]12C(=O)N(c3ccc(C)cc3)C(=O)N1[C@H](c1ccc(OC)cc1)[C@@H]1C(=O)N(C(C)(C)C)C(=O)[C@@H]12 | 38.8 |  | 18.4 µM [falling, single point]
7 | CCCNC(=O)c1onc(CSc2ccc(F)cc2)c1C(=O)NC(C)C | -26.3 |  | 1.16 µM [falling, full curve, poor fit]
8 | NC(N)=N/N=C/c1ccc(Cl)c([N+](=O)[O-])c1 | 30.8 | 1.46 µM [rising, full curve] | 1.64 µM [rising, partial curve, poor fit]
9 | O=[N+]([O-])c1cccc(C2Nc3cccc4cccc(c34)N2)c1 | -24.8 |  | 23.1 µM [falling, partial curve, poor fit]
10 | CCCCC(c1nnnn1Cc1ccco1)N1CCN(c2nc3ccccc3s2)CC1 (centres undefined) | -20 |  | 
11 | O=S(=O)(c1cccc(Cn2nnc(-c3ccc(F)cc3)n2)c1)N1CCOCC1 | -25.5 |  | 29.1 µM [falling, single point]
12 | COc1ccc(C(c2c(C)n(C)n(-c3ccccc3)c2=O)c2c(C)n(C)n(-c3ccccc3)c2=O)cc1 | -8.13 |  | 0.326 µM [rising, single point]
13 | CCOC(=O)C1=C(C)N(CCCC(=O)O)C(=O)NC1c1ccc([N+](=O)[O-])cc1 (centres undefined) | -12.6 |  | 0.82 µM [falling, full curve, poor fit]
14 | CCOc1ccc(NC(=O)C/C(C)=N/NC(=O)Cc2ccc(Cl)cc2)cc1 | 20.5 |  | 
15 | Cc1ccccc1C(=O)Nc1nncs1 |  | 1.16 µM [falling, full curve] | 
16 | COc1ccc(NC(=O)C2CCN(c3cc(C)nc(-c4ccccc4)n3)CC2)cc1 | -38.5 | 23.1 µM [falling, single point] | 
17 | CC(C)CCCN1C(Nc2ccccc2)=NC[C@@H]1CC(C)C | 3.29 |  | 
18 | COC(=O)c1sc(S(=O)(=O)N2CCC(C(N)=O)CC2)c(C(=O)OC)c1C | 59.3 | 20.6 µM [rising, single point] | 0.0731 µM [falling, full curve, poor fit]
19 | Cc1ccc(S(=O)(=O)NCc2cccnc2)c(C)c1 | 4.38 |  | 
20 | CC(C)CN1C(=O)c2ccc(NC(=O)Cc3ccccc3)cc2C1=O | 159 | 16.4 µM [rising, partial curve] | 
21 | FC(F)(F)c1nc(-c2cccs2)ncc1-c1nnnn1-c1ccc(Cl)cc1 | -14.2 |  | 14.6 µM [falling, single point]

Row | SMILES | cell number change [%] | AC50 [1] | AC50 [2]
22 | O=C(CN1CCOCC1)Nc1ccc(S(=O)(=O)N2CCCCCC2)cc1 | 2.33 |  | 
23 | O=c1oc2ccccc2cc1-c1ccccc1 | 3.97 |  | 6.51 µM [rising, partial curve]
24 | CN(C)CC(=O)Nc1ccc(S(N)(=O)=O)cc1 | -13.5 |  | 
25 | Cc1cc(N2CCN(c3cccc(C(F)(F)F)c3)CC2)n2ncnc2n1 | -20.4 |  | 
26 | COc1ccc(Cl)cc1NC(=O)/C=C\C(=O)O |  | 7.31 µM [falling, single point] | 
27 | O=C(CCCOc1ccc(Cl)cc1Cl)NCCc1ccccn1 | 17.9 | 0.103 µM [rising, full curve, poor fit] | 
28 | CN(C(=O)c1ccc2ccccc2c1)c1ccccn1 | -40.8 | 25.9 µM [falling, partial curve, poor fit] | 
29 | O=C(NCC(c1cccnc1)N1CCN(c2ccccc2)CC1)OCc1ccccc1 (centres undefined) | -27.3 |  | 
30 | CCCCn1c(N)c(N(Cc2ccccc2OC)C(=O)C(C)C)c(=O)[nH]c1=O | 12.4 |  | 
31 | COCCCNC(=O)c1ccccc1Sc1ccc(NC(C)=O)nc1 | 58.4 | 29.1 µM [rising, single point] | 
32 | Cc1ccccc1N1C(=O)C(Oc2ccc(Cl)cc2)C1CNCCCOC(C)C (centres undefined) |  |  | 1.84 µM [falling, full curve, poor fit]
33 | CC(C)[C@H](NC(=O)OCc1ccccc1)C(=O)OCC(=O)NC1CCCCC1 | 93.5 | 20.6 µM [rising, partial curve] | 0.00461 µM [rising, full curve, poor fit]
34 | Cc1ccc(OCCSc2nc3ncnc(N)c3[nH]2)cc1 | 9.65 |  | 6.51 µM [rising, single point]
35 | O=C(COc1cccc2cccnc12)Nc1nccs1 | -14.4 |  | 0.092 µM [rising, full curve, poor fit]
36 | CSc1ncccc1C(=O)OCC(=O)C(C)(C)C | 5.13 |  | 
37 | CCCCn1c(N)c(N(CCOC)C(=O)c2cc(-c3ccc(OC)cc3)nc3ccccc23)c(=O)[nH]c1=O | 38.3 | 16.4 µM [rising, partial curve] | 
38 | O=C(CCC1CCCC1)NCCS(=O)(=O)N1CCN(c2ccccc2F)CC1 | 51.9 | 18.4 µM [rising, partial curve, poor fit] | 
39 | Cc1ccc(O)c(N=Nc2ccc(S(=O)(=O)N3CCCC3)cc2)c1 | -21.9 |  | 2.91 µM [falling, partial curve]
40 | O=C(COc1ccccc1F)N1CCCc2ccccc21 | -28.8 |  | 0.13 µM [rising, full curve, poor fit]
41 | CCCn1c(=NC(=O)c2ccco2)c(C(=O)OCC)cc2c(=O)n3ccccc3nc21 | 0.391 |  | 3.26 µM [rising, partial curve]
42 | COc1ccc(-n2c(Cc3cccn3C)nnc2SCC(=O)Nc2ccc3c(c2)OCCO3)cc1 | 73.1 | 29.1 µM [rising, partial curve, poor fit] | 29.1 µM [rising, single point]

Row | SMILES | cell number change [%] | AC50 [1] | AC50 [2]
43 | CC(C)Sc1nc2c(c(=O)[nH]c(=O)n2C)n1Cc1ccc(Cl)cc1 | -18.2 |  | 0.00461 µM [falling, full curve, poor fit]
44 | COCCNCCOc1ccccc1-c1ccccc1 | 34.4 | 8.2 µM [rising, partial curve, poor fit] | 13 µM [rising, partial curve]
45 | CCOc1ccc(-c2[nH]ncc2-c2ccccc2)c(O)c1 | -6.78 |  | 
46 | CCN(CC)S(=O)(=O)c1cccc(NC(=O)c2cncc(Br)c2)c1 | -20.8 |  | 0.82 µM [falling, full curve, poor fit]
47 | Cc1ncc(S(=O)(=O)c2ccc(Cl)cc2)c(-c2ccccc2)n1 | 12 | 2.59 µM [falling, partial curve] | 2.91 µM [falling, single point]
48 | CC(=O)c1cccc(NC(=O)c2cc(-c3ccc(C)cc3)on2)c1 |  |  | 2.91 µM [falling, partial curve]
49 | O=C(CN1CCN(c2ccc(F)cc2)CC1)c1ccc(O)cc1O | -17 |  | 0.00517 µM [falling, full curve, poor fit]
50 | COc1ccccc1N1CCN(C(=O)NCc2cccc(C(F)(F)F)c2)CC1 | 10.4 |  | 29.1 µM [rising, single point]
51 | COc1ccccc1N1CC(C(=O)Nc2nc(C)cs2)CC1=O (centres undefined) | 11.8 |  | 
52 | CN(C)CCN1C(=O)C(=O)/C(=C(/O)c2ccc(S(=O)(=O)N3CCOCC3)cc2)C1c1ccccc1 (centres undefined) | 40.1 | 0.92 µM [rising, full curve, poor fit] | 
53 | Cc1onc(-c2c(F)cccc2Cl)c1C(=O)Nc1nc2ccccc2[nH]1 |  | 0.92 µM [rising, partial curve] | 
54 | Cc1c(Cl)cccc1NCC(=O)NN=C1CCCC1 | -26.9 |  | 16.4 µM [falling, partial curve, poor fit]
55 | CCN(CC)C(=O)COc1ccc(-c2nnc(N3CCCCC3)c3ccccc23)cc1 |  | 2.91 µM [rising, partial curve] | 6.51 µM [rising, single point]
56 | COc1ccc(NC(=O)C(c2ccc(OC)cc2)N(C)C(=O)c2cnccn2)cc1 (centres undefined) | 8.65 |  | 
57 | O=C(CNC(=O)c1ccco1)Nc1ccc2c(c1)OCCO2 | -6.11 |  | 
58 | CCn1c(-c2csc(C(C)C)c2)n[nH]c1=S | 14.1 | 0.092 µM [rising, full curve, poor fit] | 
59 | COc1ccccc1NC(=O)c1ccccc1S(=O)(=O)c1ccccc1[N+](=O)[O-] | -5.42 | 0.116 µM [rising, full curve, poor fit] | 0.13 µM [rising, full curve, poor fit]
60 | CCN(CC)CCNc1nc(C(F)(F)F)nc2c1nnn2Cc1ccccc1 | -1.1 |  | 18.4 µM [rising, single point]
61 | CCNC(=O)C12CCC(C)(c3nc4cc(C)c(C)cc4nc31)C2(C)C (centres undefined) | 0.955 |  | 
62 | O=C(c1ccc(COc2c(F)c(F)c(F)c(F)c2F)o1)N1CCN(Cc2ccc3c(c2)OCO3)CC1 | -31 | 29.1 µM [falling, single point] | 29.1 µM [falling, single point]

An excerpt from above in order of count of non-hydrogen atoms, low to high:
Row | SMILES | cell number change [%] | AC50 [1] | AC50 [2]
45 | CCOc1ccc(-c2[nH]ncc2-c2ccccc2)c(O)c1 | -6.78 |  | 
43 | CC(C)Sc1nc2c(c(=O)[nH]c(=O)n2C)n1Cc1ccc(Cl)cc1 | -18.2 |  | 0.00461 µM [falling, full curve, poor fit]
59 | COc1ccccc1NC(=O)c1ccccc1S(=O)(=O)c1ccccc1[N+](=O)[O-] | -5.42 | 0.116 µM [rising, full curve, poor fit] | 0.13 µM [rising, full curve, poor fit]

— PubChem BioAssay AID2685 (National Center for Advancing Translational Sciences (NCATS), 2010)
